Assay results from paper doi:10.1101/2021.06.20.449126.
Read-outs that look alike come from different tables or passages of the source. These are yes or no findings as the source states them, for the method shown. Binding seen in cells or lysates may run through a third protein. Some results given as binding are weak or reduced against the parent protein; the word gives no strength. For some assays here: Tags and fused reporters may be left off the sequences shown.

Protein sequences, listed by entry. Tags and fused reporters are not part of them.
UniProt Q5VT52: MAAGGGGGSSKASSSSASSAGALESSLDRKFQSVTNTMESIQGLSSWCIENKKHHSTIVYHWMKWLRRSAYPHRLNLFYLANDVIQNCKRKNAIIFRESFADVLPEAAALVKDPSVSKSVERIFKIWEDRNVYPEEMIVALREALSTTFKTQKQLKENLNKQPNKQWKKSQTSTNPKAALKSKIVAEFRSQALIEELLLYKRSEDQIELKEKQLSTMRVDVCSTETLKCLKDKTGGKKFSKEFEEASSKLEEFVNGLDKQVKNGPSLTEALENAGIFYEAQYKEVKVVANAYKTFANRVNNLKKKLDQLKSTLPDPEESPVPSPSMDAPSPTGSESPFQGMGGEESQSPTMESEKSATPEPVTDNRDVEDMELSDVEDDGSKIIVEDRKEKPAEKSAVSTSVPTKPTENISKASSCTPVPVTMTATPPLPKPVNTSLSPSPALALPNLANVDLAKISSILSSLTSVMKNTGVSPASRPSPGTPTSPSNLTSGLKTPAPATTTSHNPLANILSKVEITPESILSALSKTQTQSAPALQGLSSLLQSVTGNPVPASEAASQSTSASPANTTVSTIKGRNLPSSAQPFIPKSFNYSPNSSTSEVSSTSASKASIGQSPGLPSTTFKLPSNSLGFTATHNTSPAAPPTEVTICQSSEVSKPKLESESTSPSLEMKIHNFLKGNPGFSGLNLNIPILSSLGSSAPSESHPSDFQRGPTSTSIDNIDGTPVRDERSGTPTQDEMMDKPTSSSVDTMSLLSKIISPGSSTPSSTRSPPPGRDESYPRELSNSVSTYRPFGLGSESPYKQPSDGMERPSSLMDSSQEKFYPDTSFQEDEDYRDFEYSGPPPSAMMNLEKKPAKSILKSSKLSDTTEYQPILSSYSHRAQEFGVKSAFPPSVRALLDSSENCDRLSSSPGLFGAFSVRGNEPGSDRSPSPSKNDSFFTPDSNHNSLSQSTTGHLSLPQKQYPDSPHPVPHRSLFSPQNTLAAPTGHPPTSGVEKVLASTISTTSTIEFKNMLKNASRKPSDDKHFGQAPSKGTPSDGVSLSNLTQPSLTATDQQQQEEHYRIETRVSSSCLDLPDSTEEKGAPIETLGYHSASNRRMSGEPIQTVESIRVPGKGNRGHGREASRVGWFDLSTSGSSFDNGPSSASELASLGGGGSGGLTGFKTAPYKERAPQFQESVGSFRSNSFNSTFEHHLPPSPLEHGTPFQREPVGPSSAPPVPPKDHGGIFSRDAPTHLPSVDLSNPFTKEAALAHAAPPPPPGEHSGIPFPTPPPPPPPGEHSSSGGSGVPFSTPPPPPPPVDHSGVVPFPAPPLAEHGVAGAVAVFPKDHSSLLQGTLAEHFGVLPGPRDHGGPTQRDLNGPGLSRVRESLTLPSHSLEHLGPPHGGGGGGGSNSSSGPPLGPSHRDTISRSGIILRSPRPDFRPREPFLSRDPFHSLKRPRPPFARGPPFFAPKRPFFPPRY

Tests used:
Assay in all cases: co-IP
[1] = target: T1, full-length (FL) RPRD1B-3F, tetracycline-inducible, Flp-In T-REx 293 (human) (UniProt Q9NQG5)
T1 sequence: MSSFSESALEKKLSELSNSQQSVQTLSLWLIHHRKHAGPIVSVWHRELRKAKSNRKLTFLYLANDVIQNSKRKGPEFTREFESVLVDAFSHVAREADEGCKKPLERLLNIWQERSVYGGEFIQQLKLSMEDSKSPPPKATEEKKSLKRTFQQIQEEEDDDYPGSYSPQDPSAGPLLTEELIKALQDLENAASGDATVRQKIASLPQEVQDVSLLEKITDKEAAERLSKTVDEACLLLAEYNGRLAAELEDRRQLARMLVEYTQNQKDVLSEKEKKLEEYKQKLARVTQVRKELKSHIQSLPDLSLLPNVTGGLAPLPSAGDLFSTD

[2] = target: T1, full-length (FL) RPRD1B-3F, tetracycline-inducible, Flp-In T-REx 293 (human); remark: listed apart in the source
[3] = target: T1, full-length (FL) RPRD1B-3F, tetracycline-inducible, Flp-In T-REx 293 (human); remark: listed apart in the source
[4] = target: T2, full-length RPRD1A-3F, tetracycline-inducible, Flp-In T-REx 293 (human) (UniProt Q96P16)
T2 sequence: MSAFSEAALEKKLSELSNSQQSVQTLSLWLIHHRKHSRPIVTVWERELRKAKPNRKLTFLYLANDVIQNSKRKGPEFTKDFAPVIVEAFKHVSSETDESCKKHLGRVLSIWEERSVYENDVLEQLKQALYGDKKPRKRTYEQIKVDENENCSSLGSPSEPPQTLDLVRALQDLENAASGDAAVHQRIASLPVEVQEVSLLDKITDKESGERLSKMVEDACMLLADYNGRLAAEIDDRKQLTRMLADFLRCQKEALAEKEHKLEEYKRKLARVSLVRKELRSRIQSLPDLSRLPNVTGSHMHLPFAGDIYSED

[5] = target: T3, RPRD1A CID domain variant, 3F-tagged (human) (UniProt Q96P16)
T3 sequence: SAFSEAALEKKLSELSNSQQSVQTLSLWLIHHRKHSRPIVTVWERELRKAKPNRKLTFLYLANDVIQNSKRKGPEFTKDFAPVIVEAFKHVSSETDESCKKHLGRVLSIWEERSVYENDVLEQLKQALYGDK

[6] = target: endogenous RPRD2 (human (endogenous in HEK293T and Flp-In T-REx 293)) (UniProt Q5VT52)
[7] = target: T1, full-length (FL) RPRD1B-3F, tetracycline-inducible, Flp-In T-REx 293 (human); remark: listed apart in the source
[8] = target: T2, full-length RPRD1A-3F, tetracycline-inducible, Flp-In T-REx 293 (human); remark: listed apart in the source

Molecule | binding [1] | binding [2] | binding [3] | binding [4] | binding [5] | binding [6] | binding [7] | binding [8]
endogenous RPRD2 (from UniProt Q5VT52 1-1461) | binds weakly | binds | binds | – | – | – | – | –
endogenous RPRD1B (protein, UniProt Q9NQG5 1-326) MSSFSESALEKKLSELSNSQQSVQTLSLWLIHHRKHAGPIVSVWHRELRKAKSNRKLTFLYLANDVIQNSKRKGPEFTREFESVLVDAFSHVAREADEGCKKPLERLLNIWQERSVYGGEFIQQLKLSMEDSKSPPPKATEEKKSLKRTFQQIQEEEDDDYPGSYSPQDPSAGPLLTEELIKALQDLENAASGDATVRQKIASLPQEVQDVSLLEKITDKEAAERLSKTVDEACLLLAEYNGRLAAELEDRRQLARMLVEYTQNQKDVLSEKEKKLEEYKQKLARVTQVRKELKSHIQSLPDLSLLPNVTGGLAPLPSAGDLFSTD | – | – | – | binds | no binding | binds | binds | binds
